According to article PMC3880038:
Results are given in words; binding and its absence hold for the method and conditions named. In cells and extracts the contact can be indirect.

The chains behind the UniProt entries cited, without tags or fusion partners.
UniProt P26038: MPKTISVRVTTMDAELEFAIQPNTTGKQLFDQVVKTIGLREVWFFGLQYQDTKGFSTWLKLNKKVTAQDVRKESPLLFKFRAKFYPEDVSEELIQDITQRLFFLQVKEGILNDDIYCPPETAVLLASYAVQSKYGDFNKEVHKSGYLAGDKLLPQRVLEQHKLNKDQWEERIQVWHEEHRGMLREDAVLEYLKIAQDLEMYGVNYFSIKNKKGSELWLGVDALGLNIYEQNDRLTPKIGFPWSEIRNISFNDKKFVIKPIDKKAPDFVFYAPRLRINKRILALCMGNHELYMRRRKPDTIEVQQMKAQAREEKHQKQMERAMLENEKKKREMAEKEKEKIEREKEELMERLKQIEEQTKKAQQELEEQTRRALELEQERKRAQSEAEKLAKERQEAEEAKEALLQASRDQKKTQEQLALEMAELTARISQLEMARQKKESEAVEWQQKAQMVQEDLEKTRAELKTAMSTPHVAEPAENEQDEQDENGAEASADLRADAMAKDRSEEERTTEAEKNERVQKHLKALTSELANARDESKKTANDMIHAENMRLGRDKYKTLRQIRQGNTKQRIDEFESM
UniProt P15311: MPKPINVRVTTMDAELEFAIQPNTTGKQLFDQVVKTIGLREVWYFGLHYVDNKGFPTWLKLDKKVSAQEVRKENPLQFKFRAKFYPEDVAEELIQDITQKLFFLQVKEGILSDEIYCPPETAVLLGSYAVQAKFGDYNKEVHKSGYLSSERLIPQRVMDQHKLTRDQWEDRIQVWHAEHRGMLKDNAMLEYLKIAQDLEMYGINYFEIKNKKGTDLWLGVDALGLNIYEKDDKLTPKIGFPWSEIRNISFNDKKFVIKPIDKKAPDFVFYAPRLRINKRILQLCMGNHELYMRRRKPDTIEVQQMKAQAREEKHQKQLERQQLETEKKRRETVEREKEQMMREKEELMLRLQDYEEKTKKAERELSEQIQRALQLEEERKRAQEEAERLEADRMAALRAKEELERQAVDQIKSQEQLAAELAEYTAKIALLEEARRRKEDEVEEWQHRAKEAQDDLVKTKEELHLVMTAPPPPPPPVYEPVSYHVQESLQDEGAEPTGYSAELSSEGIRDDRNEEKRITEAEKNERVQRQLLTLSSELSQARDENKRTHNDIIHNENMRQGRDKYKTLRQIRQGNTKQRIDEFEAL
UniProt P35241: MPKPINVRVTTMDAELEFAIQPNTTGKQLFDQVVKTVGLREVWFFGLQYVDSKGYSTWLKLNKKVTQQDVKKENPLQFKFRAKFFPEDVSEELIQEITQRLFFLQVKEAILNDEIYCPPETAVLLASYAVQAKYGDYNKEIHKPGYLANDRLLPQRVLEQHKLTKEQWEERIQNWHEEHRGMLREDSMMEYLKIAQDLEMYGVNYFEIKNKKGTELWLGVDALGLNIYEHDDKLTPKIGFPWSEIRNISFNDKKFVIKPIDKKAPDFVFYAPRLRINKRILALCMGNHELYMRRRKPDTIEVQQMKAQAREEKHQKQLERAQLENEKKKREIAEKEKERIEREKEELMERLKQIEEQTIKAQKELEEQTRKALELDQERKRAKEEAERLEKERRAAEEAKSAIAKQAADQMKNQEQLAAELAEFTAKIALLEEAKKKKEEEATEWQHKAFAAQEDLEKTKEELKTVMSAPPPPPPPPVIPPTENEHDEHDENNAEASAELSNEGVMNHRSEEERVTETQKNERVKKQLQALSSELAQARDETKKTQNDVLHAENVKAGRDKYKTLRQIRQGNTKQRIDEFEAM

What was measured:
Assay in all cases: co-IP; anti-c-myc immunoprecipitation from lysates of BPAEC transfected with pCMV-myc ezrin, radixin or moesin (IP buffer with 150 mM NaCl, 1% Nonidet P-40; protein G Sepharose, 4°C), Western blot for c-myc, EBP50 and NHERF2
[1] = target: c-myc-tagged moesin (pCMV-myc moesin) (UniProt P26038)
[2] = target: c-myc-tagged ezrin (pCMV-myc ezrin) (UniProt P15311)
[3] = target: c-myc-tagged radixin (pCMV-myc radixin) (UniProt P35241)

Measured: binding

B1: EBP50 (NHERF1), endogenous in BPAEC (protein, UniProt Q3SZK8 1-368)
chain: MSADAGAGAPLPRLCCLEKGPNGYGFHLHGEKGKVGQYIRLVEPGSPAEKSGLLAGDRLVEVNGENVEKETHQQVVNRIRAALNSVRLLVVDPETDERLQKLGVQVREEMLRAQEGPGQAEPPAAAAEERGAGGENEPPAAAPEPREAEQSPQERRELRPRLCAMKKGPNGYGFNLHSDKSKPGQFIRAVDPDSPAEASGLRAQDRIVEVNGVCVEGKPHGEVVSAIKAGGDEAKLLVVDRETDEFFKKCKVIPSQEHLQGPLPEPITNGEIEKENSPEALAETASESPMPPLARTASSDTSEELNSQDSPKKQDSTAPSSTSSSSSDPVLDFSISLAVAKERAHQKRVSKRAPQMDWSKKNELFSNL
no binding: [1] | [2] | [3]
